# Results are given in words; binding and its absence hold for the method and conditions named. In cells and extracts the contact can be indirect. A yes stands for co-enrichment or nearness to the bait. Other partners may have been found. For part of these data: Where a sequence is shown, tags or fusion partners need not be part of it.
# By UniProt entry, the sequences of proteins in these tests, tags left out. Residues count along the entry.
# UniProt Q7X9V3, residues 59-258: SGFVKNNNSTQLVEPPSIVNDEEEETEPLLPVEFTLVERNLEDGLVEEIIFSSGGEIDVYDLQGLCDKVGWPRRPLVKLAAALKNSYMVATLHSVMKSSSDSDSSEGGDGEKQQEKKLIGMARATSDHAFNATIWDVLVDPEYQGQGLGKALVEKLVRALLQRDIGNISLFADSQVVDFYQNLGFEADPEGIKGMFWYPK
# T1: GNAT1-GFP (Arabidopsis thaliana) (UniProt Q9C666)
# T1 sequence: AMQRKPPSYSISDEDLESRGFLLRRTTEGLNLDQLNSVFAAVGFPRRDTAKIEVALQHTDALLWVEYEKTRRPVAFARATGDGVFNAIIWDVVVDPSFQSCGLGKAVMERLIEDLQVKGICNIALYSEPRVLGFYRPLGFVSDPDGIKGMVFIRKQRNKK
# Biological target: T1, GNAT1-GFP (Arabidopsis thaliana)
# Assay: affinity purification with mass spectrometry; GFP-Trap A beads with 2 mg leaf protein of GNAT1-, GNAT2- or GNAT3-GFP overexpressing Arabidopsis lines, 2 h at 4 °C; extraction buffer 50 mM HEPES-KOH pH 7.5, 150 mM NaCl, 10% glycerol, 2 mM EDTA, 5 mM DTT, 0.5% Triton X-100; label-free quantification against a chloroplast-targeted GFP control line; four biological replicates
row,binding,Binder
1,binds,"Cold-Responsive 6.6 (protein, UniProt P31169 1-66) MSETNKNAFQAGQAAGKAEEKSNVLLDKAKDAAAAAGASAQQAGKSISDAAVGGVNFVKDKTGLNK"
2,binds,"Seedling Plastid Development 1 (protein, UniProt F4J3R7 79-684) DSSISSRKSPTTAPPTVELDAFLEILPPATRKELVKHEAIEELIEVVMDLGRKPLARFPSGDWVISEQPVTHQDLELAVSKVGDFSDDNRSGIDRSLHRISAIRNRKLQVIGLTCRVGRVVSGSAEIIRDLIEGGGSILVIGSPGVGKTTLIREIARMLADEHRKRVVIVDTSNEIGGDGDVPHSGIGRARRMQVPNVNLQHDVMIEAVENHMPETIIIDEIGTELEALAASTIAQRGVQLVATAHGMTIDNIIKNPSLQILIGGIESVTLGDEEARKRKVQKTILERKGPPTFTCAVEMISRTECRVHQRLDVTVDAILAGKSAPFEIRQIRGEDDVPHKLVTPIPLENLEEEPAPLLNRDFVSELLSDDEDEDFLLIRSNKARSNTYTSPRSSPVHVYTYNVLEADLLQVAEVMGLDDEIEVTDDVGEADVILASSSELKQNSSIRRVAKLHKLPIFVIKSTTMAQMVKAVRMILGRESFGSAPKAIEKSSVDDIEIKDDAPESKPSLEELDALEEVRLAIEYIVIPGGEPVELLPRRSDIIVRQLELVESYQLAVENLGTHLNPRLQILPRRSTKKTLTSSSPQKSADGSMGTTGTRLPFLKD"
3,binds,"Accumulation and Replication of Chloroplasts 11 (protein, UniProt Q9MBA2 63-326) ITSGKGGVGKTTTTANVGLSLARYGFSVVAIDADLGLRNLDLLLGLENRVNYTCVEVINGDCRLDQALVRDKRWSNFELLCISKPRSKLPMGFGGKALEWLVDALKTRPEGSPDFIIIDCPAGIDAGFITAITPANEAVLVTTPDITALRDADRVTGLLECDGIRDIKMIVNRVRTDMIKGEDMMSVLDVQEMLGLSLLGVIPEDSEVIRSTNRGFPLVLNKPPTLAGLAFEQAAWRLVEQDSMKAVMVEEEPKKRGFFSFFGG"
4,binds,"FTSZ1-1 (protein, UniProt Q42545 67-433) SFSPMESARIKVIGVGGGGNNAVNRMISSGLQSVDFYAINTDSQALLQSSAENPLQIGELLTRGLGTGGNPLLGEQAAEESKDAIANALKGSDLVFITAGMGGGTGSGAAPVVAQISKDAGYLTVGVVTYPFSFEGRKRSLQALEAIEKLQKNVDTLIVIPNDRLLDIADEQTPLQDAFLLADDVLRQGVQGISDIITIPGLVNVDFADVKAVMKDSGTAMLGVGVSSSKNRAEEAAEQATLAPLIGSSIQSATGVVYNITGGKDITLQEVNRVSQVVTSLADPSANIIFGAVVDDRYTGEIHVTIIATGFSQSFQKTLLTDPRAAKLLDKMGSSGQQENKGMSLPHQKQSPSTISTKSSSPRRLFF"

# Biological target: GNAT2-GFP (Arabidopsis thaliana) (UniProt Q7X9V3)
# Assay: as above
row,binding,Binder
1,binds,"GNAT3 (enzyme, UniProt Q940H2 94-237) SVFCKPQHVDVDDAVLYSEEESLSSSLYTSEFGRQNKDDSFLGDLFQNAVPLTPSNGQLVGFGRAYSDYGLTASIHDLMVLPSLQRMGIGKLIVNRIVRLLTSRDIYDIAALCFEDERPFFKACGFGDDRMGSTTMMFTKSLEA"
2,binds,"RPL9 (protein, UniProt P25864 43-197) QKKAKKLRKVILKEDVTDLGKQGQLLDVKAGFFRNFLLPTGKAQLMTPLLLKELKMEDERIEAEKQRVKEEAQQLAMVFQTVGAFKVKRKGGKGKLIFGSVTAQDLVDIIKSQLQKDIDKRLVSLPEIRETGEYIAELKLHPDVTARVKINVFAN"
3,binds,"Cold-Regulated 15B (protein, UniProt Q9SIN5 42-141) AQRKKSLIYAVKSDGNILDDLNEATKKASDFVTDKTKEALADGEKTKDYIVEKTIEANETATEEAKKALDYVTEKGKEAGNKAAEFVEGKAEEAKNATKS"
4,binds,"Cold-Responsive 6.6 (protein, UniProt P31169 1-66) MSETNKNAFQAGQAAGKAEEKSNVLLDKAKDAAAAAGASAQQAGKSISDAAVGGVNFVKDKTGLNK"
5,binds,"RPS17 (protein, UniProt P16180 50-149) MKTMQGRVVCATSDKTVAVEVVRLAPHPKYKRRVRMKKKYQAHDPDNQFKVGDVVRLEKSRPISKTKSFVALPVIARAARKAEAGGDELLGLPLESQQPA"

# From paper PMC11585782, “The Plastidial Protein Acetyltransferase GNAT1 Forms a Complex With GNAT2, yet Their Interaction Is Dispensable for State Transitions” (Molecular & Cellular Proteomics : MCP, 2024)
